{
  "source": "paper PMC6615629",
  "about": "“Hsp70-nucleotide exchange factor (NEF) Fes1 has non-NEF roles in degradation of gluconeogenic enzymes and cell wall integrity” (PLoS Genetics, 2019)",
  "binders": {"B1": {"name": "His6-Fbp1 (enzyme, yeast (S. cerevisiae), UniProt P09201 1-348, looked up)", "chain": "MPTLVNGPRRDSTEGFDTDIITLPRFIIEHQKQFKNATGDFTLVLNALQFAFKFVSHTIRRAELVNLVGLAGASNFTGDQQKKLDVLGDEIFINAMRASGIIKVLVSEEQEDLIVFPTNTGSYAVCCDPIDGSSNLDAGVSVGTIASIFRLLPDSSGTINDVLRCGKEMVAACYAMYGSSTHLVLTLGDGVDGFTLDTNLGEFILTHPNLRIPPQKAIYSINEGNTLYWNETIRTFIEKVKQPQADNNNKPFSARYVGSMVADVHRTFLYGGLFAYPCDKKSPNGKLRLLYEAFPMAFLMEQAGGKAVNDRGERILDLVPSHIHDKSSIWLGSSGEIDKFLDHIGKSQ", "notes": "Fbp1, yeast gluconeogenic enzyme; the initiator methionine is present in the purified protein and is counted as residue 1; also called wild type His6-Fbp1; not shown: His6, N-terminal, kept"}},
  "target": "GST-Fes1ΔRD (yeast (S. cerevisiae))",
  "test": "pull-down; GST-Fes1 (wild type or mutant, or GST alone) pulled down on glutathione resin; reactions with two or all three proteins; 6 μg each of His6-Fbp1 (1.6 μM), Hsp70 (0.9 μM) and GST-Fes1 (1.09 μM), with or without ATP, ADP or AMP (2.5 mM); 50 mM Tris-HCl pH 7.5, 150 mM NaCl, 2% glycerol, 5 mM MgCl2; 30 min at 4°C; stained SDS-PAGE gels; both purified",
  "note": "Results are given in words; binding and its absence hold for the method and conditions named. Binding can be weak; no strength is given. Where a sequence is shown, tags or fusion partners need not be part of it.",
  "data": [
    {"binder": "B1", "values": [
      {"measurement": "binding", "result": "binds"}
    ]}
  ]
}
